This passage reports binding results from paper PMC7775567.

For this experiment, the target named is GSK3α/β (rat (endogenous in primary neurons)). Kind of experiment: co-IP; Neurons treated with astrocyte derived EV-CK1-IL1β (and control EVs) for 18 h; antibody against GSK3, Axin1 or APC coupled to Dynabeads M-450 Epoxy, incubated with cell lysate overnight at 4°C, washed three times with PBS; immunoblot probed for Myc tagged CK1. (In general: Immunoblotting shows a protein as a band on a membrane.)

These are yes or no findings as the source states them, for the method shown. Binding seen in cells or lysates may run through a third protein. Binding calls can cover weak binding; strength is not graded here. Sequences can lack the tags named with a protein.

B1: Myc-tagged CK1 (casein kinase 1; Csnk1a1) (enzyme, UniProt P97633 1-325)
chain: MASSSGSKAEFIVGGKYKLVRKIGSGSFGDIYLAINITNGEEVAVKLESQKARHPQLLYESKLYKILQGGVGIPHIRWYGQGKDYNVLVMDLLGPSLEDLFNFCSRRFTMKTVLMLADQMISRIEYVHTKNFIHRDIKPDNFLMGIGRHCNKLFLIDFGLAKKYRDNRTRQHIPYREDKNLTGTARYASINAHLGIEQSRRDDMESLGYVLMYFNRTSLPWQGLKAATKKQKYEKISEKKMSTPVEVLCKGFPAEFAMYLNYCRGLRFEEAPDYMYLRQLFRILFRTLNHQYDYTFDWTMLKQKAAQQAASSSGQGQQAQTPTGF
In the case of B1, the binding entry was “binds”.
